PubChem BioAssay AID1904, GNF, 2009
Only reagents picked out of a larger screen are listed. 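Lists only primary-screen hits; phenotype classes come from fitted traces, and the underlying luminescence values are not given.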 Reagents against one gene are numbered here.

- Screen: 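Novel clock parts and modifiers of the cell-autonomous circadian rhythm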 (follow-up of hits)
- Cell system: human U2OS osteosarcoma cells stably expressing a destabilised luciferase driven by the Bmal1 promoter
- Reagent: siRNA pair against human genes, 12.5 nM (two siRNAs, 0.5 pmol each, per well)
- Time to read-out: about 3 days after transfection, then luminescence recorded for about 4 days
- Measurement: 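Bmal1 reporter light output measured every 2 hours over several days, detrended, then fitted to give period and amplitude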
- Hit rule: 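Scored active if separate single siRNAs repeated the clock phenotype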
- Calls: active = confirmed by single siRNAs; inactive = not confirmed

no.	gene knocked down	reagent	clock phenotype class	confirmed with single siRNAs	Outcome
1	NOLA2	1	longer clock period; seen with two independent siRNA pairs for the gene	phenotype reproduced by individual siRNAs	active
2	NOLA2	2	longer clock period; seen with two independent siRNA pairs for the gene	phenotype reproduced by individual siRNAs	active
3	SLICK	1	longer clock period; seen with two independent siRNA pairs for the gene	phenotype reproduced by individual siRNAs	active
4	SLICK	2	longer clock period; seen with two independent siRNA pairs for the gene	phenotype reproduced by individual siRNAs	active
5	PTGER3	1	longer clock period; seen with two independent siRNA pairs for the gene	phenotype reproduced by individual siRNAs	active
6	PTGER3	2	longer clock period; seen with two independent siRNA pairs for the gene	phenotype reproduced by individual siRNAs	active
7	PTGER3	3	longer clock period; seen with two independent siRNA pairs for the gene	phenotype reproduced by individual siRNAs	active
8	PTGER3	4	longer clock period; seen with two independent siRNA pairs for the gene	phenotype reproduced by individual siRNAs	active
9	FRAP1	1	longer clock period; seen with two independent siRNA pairs for the gene	phenotype reproduced by individual siRNAs	active
10	FRAP1	2	longer clock period; seen with two independent siRNA pairs for the gene	phenotype reproduced by individual siRNAs	active
11	OR2W1	1	higher rhythm amplitude; seen with one siRNA pair in duplicate wells	phenotype reproduced by individual siRNAs	active
12	OR2W1	2	higher rhythm amplitude; seen with one siRNA pair in duplicate wells	phenotype reproduced by individual siRNAs	active
13	MGC31963	1	higher rhythm amplitude; seen with two independent siRNA pairs for the gene	phenotype reproduced by individual siRNAs	active
14	MGC31963	2	higher rhythm amplitude; seen with two independent siRNA pairs for the gene	phenotype reproduced by individual siRNAs	active
15	DDX56	1	shorter clock period; seen with one siRNA pair in duplicate wells	phenotype reproduced by individual siRNAs	active
16	DDX56	2	shorter clock period; seen with one siRNA pair in duplicate wells	phenotype reproduced by individual siRNAs	active
17	NR0B2	1	shorter clock period; seen with one siRNA pair in duplicate wells	phenotype reproduced by individual siRNAs	active
18	NR0B2	2	shorter clock period; seen with one siRNA pair in duplicate wells	phenotype reproduced by individual siRNAs	active
19	PEA15	1	higher rhythm amplitude; seen with two independent siRNA pairs for the gene	phenotype reproduced by individual siRNAs	active
20	PEA15	2	higher rhythm amplitude; seen with two independent siRNA pairs for the gene	phenotype reproduced by individual siRNAs	active
21	CTDP1	1	longer clock period; seen with two independent siRNA pairs for the gene	phenotype reproduced by individual siRNAs	active
22	CTDP1	2	longer clock period; seen with two independent siRNA pairs for the gene	phenotype reproduced by individual siRNAs	active
23	LHCGR	1	longer clock period; seen with two independent siRNA pairs for the gene	phenotype reproduced by individual siRNAs	active
24	LHCGR	2	longer clock period; seen with two independent siRNA pairs for the gene	phenotype reproduced by individual siRNAs	active
25	MT3	1	higher rhythm amplitude; seen with one siRNA pair in duplicate wells	phenotype reproduced by individual siRNAs	active
26	MT3	2	higher rhythm amplitude; seen with one siRNA pair in duplicate wells	phenotype reproduced by individual siRNAs	active
27	SSBP1	1	longer clock period; seen with two independent siRNA pairs for the gene	phenotype reproduced by individual siRNAs	active
28	SSBP1	2	longer clock period; seen with two independent siRNA pairs for the gene	phenotype reproduced by individual siRNAs	active
29	C11orf33	1	longer clock period; seen with two independent siRNA pairs for the gene	phenotype reproduced by individual siRNAs	active
30	C11orf33	2	longer clock period; seen with two independent siRNA pairs for the gene	phenotype reproduced by individual siRNAs	active
31	MRPL18	1	longer clock period; seen with two independent siRNA pairs for the gene	phenotype not reproduced by individual siRNAs	inconclusive
32	MRPL18	2	longer clock period; seen with two independent siRNA pairs for the gene	phenotype not reproduced by individual siRNAs	inconclusive
33	MAPK8	1	longer clock period; seen with two independent siRNA pairs for the gene	phenotype reproduced by individual siRNAs	active
34	MAPK8	2	longer clock period; seen with two independent siRNA pairs for the gene	phenotype reproduced by individual siRNAs	active
35	MAP3K2	1	longer clock period; seen with two independent siRNA pairs for the gene	phenotype reproduced by individual siRNAs	active
36	MAP3K2	2	longer clock period; seen with two independent siRNA pairs for the gene	phenotype reproduced by individual siRNAs	active
37	CSNK1E	1	longer clock period; seen with two independent siRNA pairs for the gene	phenotype reproduced by individual siRNAs	active
38	CSNK1E	2	longer clock period; seen with two independent siRNA pairs for the gene	phenotype reproduced by individual siRNAs	active
39	VPS4A	1	longer clock period; seen with two independent siRNA pairs for the gene	phenotype not reproduced by individual siRNAs	inconclusive
40	VPS4A	2	longer clock period; seen with two independent siRNA pairs for the gene	phenotype not reproduced by individual siRNAs	inconclusive
41	GMFG	1	shorter clock period; seen with one siRNA pair in duplicate wells	phenotype reproduced by individual siRNAs	active
42	GMFG	2	shorter clock period; seen with one siRNA pair in duplicate wells	phenotype reproduced by individual siRNAs	active
43	GPR37L1	1	longer clock period; seen with two independent siRNA pairs for the gene	phenotype reproduced by individual siRNAs	active
44	GPR37L1	2	longer clock period; seen with two independent siRNA pairs for the gene	phenotype reproduced by individual siRNAs	active
45	PTTG2	1	shorter clock period; seen with one siRNA pair in duplicate wells	phenotype not reproduced by individual siRNAs	inconclusive
46	PTTG2	2	shorter clock period; seen with one siRNA pair in duplicate wells	phenotype not reproduced by individual siRNAs	inconclusive
47	NMNAT1	1	higher rhythm amplitude; seen with one siRNA pair in duplicate wells	phenotype reproduced by individual siRNAs	active
48	NMNAT1	2	higher rhythm amplitude; seen with one siRNA pair in duplicate wells	phenotype reproduced by individual siRNAs	active

14 of these entries, set out differently.
{"gene knocked down": "MAP3K2", "reagent": 1, "clock phenotype class": "longer clock period; seen with two independent siRNA pairs for the gene", "confirmed with single siRNAs": "phenotype reproduced by individual siRNAs", "Outcome": "active"}
{"gene knocked down": "MAP3K2", "reagent": 2, "clock phenotype class": "longer clock period; seen with two independent siRNA pairs for the gene", "confirmed with single siRNAs": "phenotype reproduced by individual siRNAs", "Outcome": "active"}
{"gene knocked down": "CSNK1E", "reagent": 1, "clock phenotype class": "longer clock period; seen with two independent siRNA pairs for the gene", "confirmed with single siRNAs": "phenotype reproduced by individual siRNAs", "Outcome": "active"}
{"gene knocked down": "CSNK1E", "reagent": 2, "clock phenotype class": "longer clock period; seen with two independent siRNA pairs for the gene", "confirmed with single siRNAs": "phenotype reproduced by individual siRNAs", "Outcome": "active"}
{"gene knocked down": "VPS4A", "reagent": 1, "clock phenotype class": "longer clock period; seen with two independent siRNA pairs for the gene", "confirmed with single siRNAs": "phenotype not reproduced by individual siRNAs", "Outcome": "inconclusive"}
{"gene knocked down": "VPS4A", "reagent": 2, "clock phenotype class": "longer clock period; seen with two independent siRNA pairs for the gene", "confirmed with single siRNAs": "phenotype not reproduced by individual siRNAs", "Outcome": "inconclusive"}
{"gene knocked down": "GMFG", "reagent": 1, "clock phenotype class": "shorter clock period; seen with one siRNA pair in duplicate wells", "confirmed with single siRNAs": "phenotype reproduced by individual siRNAs", "Outcome": "active"}
{"gene knocked down": "GMFG", "reagent": 2, "clock phenotype class": "shorter clock period; seen with one siRNA pair in duplicate wells", "confirmed with single siRNAs": "phenotype reproduced by individual siRNAs", "Outcome": "active"}
{"gene knocked down": "GPR37L1", "reagent": 1, "clock phenotype class": "longer clock period; seen with two independent siRNA pairs for the gene", "confirmed with single siRNAs": "phenotype reproduced by individual siRNAs", "Outcome": "active"}
{"gene knocked down": "GPR37L1", "reagent": 2, "clock phenotype class": "longer clock period; seen with two independent siRNA pairs for the gene", "confirmed with single siRNAs": "phenotype reproduced by individual siRNAs", "Outcome": "active"}
{"gene knocked down": "PTTG2", "reagent": 1, "clock phenotype class": "shorter clock period; seen with one siRNA pair in duplicate wells", "confirmed with single siRNAs": "phenotype not reproduced by individual siRNAs", "Outcome": "inconclusive"}
{"gene knocked down": "PTTG2", "reagent": 2, "clock phenotype class": "shorter clock period; seen with one siRNA pair in duplicate wells", "confirmed with single siRNAs": "phenotype not reproduced by individual siRNAs", "Outcome": "inconclusive"}
{"gene knocked down": "NMNAT1", "reagent": 1, "clock phenotype class": "higher rhythm amplitude; seen with one siRNA pair in duplicate wells", "confirmed with single siRNAs": "phenotype reproduced by individual siRNAs", "Outcome": "active"}
{"gene knocked down": "NMNAT1", "reagent": 2, "clock phenotype class": "higher rhythm amplitude; seen with one siRNA pair in duplicate wells", "confirmed with single siRNAs": "phenotype reproduced by individual siRNAs", "Outcome": "active"}

Additional records follow:
no.	gene knocked down	reagent	clock phenotype class	confirmed with single siRNAs	Outcome
49	CSE1L	1	longer clock period; seen with two independent siRNA pairs for the gene	phenotype reproduced by individual siRNAs	active
50	CSE1L	2	longer clock period; seen with two independent siRNA pairs for the gene	phenotype reproduced by individual siRNAs	active
51	SNRPB2	1	longer clock period; seen with two independent siRNA pairs for the gene	not retested with individual siRNAs	
52	DDB1	1	higher rhythm amplitude; seen with two independent siRNA pairs for the gene	phenotype reproduced by individual siRNAs	active
53	DDB1	2	higher rhythm amplitude; seen with two independent siRNA pairs for the gene	phenotype reproduced by individual siRNAs	active
54	SELO	1	shorter clock period; seen with two independent siRNA pairs for the gene	phenotype reproduced by individual siRNAs	active
55	SELO	2	shorter clock period; seen with two independent siRNA pairs for the gene	phenotype reproduced by individual siRNAs	active
56	TPO	1	longer clock period; seen with two independent siRNA pairs for the gene	phenotype reproduced by individual siRNAs	active
57	TPO	2	longer clock period; seen with two independent siRNA pairs for the gene	phenotype reproduced by individual siRNAs	active
58	MGC50372	1	higher rhythm amplitude; seen with two independent siRNA pairs for the gene	phenotype not reproduced by individual siRNAs	inconclusive
59	MGC50372	2	higher rhythm amplitude; seen with two independent siRNA pairs for the gene	phenotype not reproduced by individual siRNAs	inconclusive
60	CNNM4	1	shorter clock period; seen with two independent siRNA pairs for the gene	phenotype reproduced by individual siRNAs	active
61	CNNM4	2	shorter clock period; seen with two independent siRNA pairs for the gene	phenotype reproduced by individual siRNAs	active
62	LOC129530	1	shorter clock period; seen with two independent siRNA pairs for the gene	phenotype reproduced by individual siRNAs	active
63	LOC129530	2	shorter clock period; seen with two independent siRNA pairs for the gene	phenotype reproduced by individual siRNAs	active
64	COPE	1	shorter clock period; seen with two independent siRNA pairs for the gene	phenotype reproduced by individual siRNAs	active
65	EXOSC4	1	longer clock period; seen with two independent siRNA pairs for the gene	phenotype not reproduced by individual siRNAs	inconclusive
66	EXOSC4	2	longer clock period; seen with two independent siRNA pairs for the gene	phenotype not reproduced by individual siRNAs	inconclusive
67	FOXA3	1	longer clock period; seen with two independent siRNA pairs for the gene	phenotype reproduced by individual siRNAs	active
68	FOXA3	2	longer clock period; seen with two independent siRNA pairs for the gene	phenotype reproduced by individual siRNAs	active
69	CX3CL1	1	longer clock period; seen with two independent siRNA pairs for the gene	phenotype reproduced by individual siRNAs	active
70	CX3CL1	2	longer clock period; seen with two independent siRNA pairs for the gene	phenotype reproduced by individual siRNAs	active
71	DGKQ	1	longer clock period; seen with two independent siRNA pairs for the gene	phenotype reproduced by individual siRNAs	active
72	DGKQ	2	longer clock period; seen with two independent siRNA pairs for the gene	phenotype reproduced by individual siRNAs	active
73	GPR17	1	longer clock period; seen with two independent siRNA pairs for the gene	phenotype reproduced by individual siRNAs	active
74	GPR17	2	longer clock period; seen with two independent siRNA pairs for the gene	phenotype reproduced by individual siRNAs	active
75	FLJ23514	1	longer clock period; seen with two independent siRNA pairs for the gene	phenotype reproduced by individual siRNAs	active
76	FLJ23514	2	longer clock period; seen with two independent siRNA pairs for the gene	phenotype reproduced by individual siRNAs	active
77	RABGEF1	1	longer clock period; seen with two independent siRNA pairs for the gene	phenotype reproduced by individual siRNAs	active
78	RABGEF1	2	longer clock period; seen with two independent siRNA pairs for the gene	phenotype reproduced by individual siRNAs	active
79	HRB2	1	longer clock period; seen with two independent siRNA pairs for the gene	not retested with individual siRNAs	
80	HRB2	2	longer clock period; seen with two independent siRNA pairs for the gene	not retested with individual siRNAs	
81	C11ORF4	1	longer clock period; seen with two independent siRNA pairs for the gene	phenotype reproduced by individual siRNAs	active
82	C11ORF4	2	longer clock period; seen with two independent siRNA pairs for the gene	phenotype reproduced by individual siRNAs	active
83	MAPRE2	1	shorter clock period; seen with one siRNA pair in duplicate wells	phenotype not reproduced by individual siRNAs	inconclusive
84	MAPRE2	2	shorter clock period; seen with one siRNA pair in duplicate wells	phenotype not reproduced by individual siRNAs	inconclusive
